Sequences of proteins named here, by UniProt entry; tags and fusion partners are left off. A change or cut given only in a name is not applied to a line headed by its entry. Residues count along the entry.
UniProt Q6AI12: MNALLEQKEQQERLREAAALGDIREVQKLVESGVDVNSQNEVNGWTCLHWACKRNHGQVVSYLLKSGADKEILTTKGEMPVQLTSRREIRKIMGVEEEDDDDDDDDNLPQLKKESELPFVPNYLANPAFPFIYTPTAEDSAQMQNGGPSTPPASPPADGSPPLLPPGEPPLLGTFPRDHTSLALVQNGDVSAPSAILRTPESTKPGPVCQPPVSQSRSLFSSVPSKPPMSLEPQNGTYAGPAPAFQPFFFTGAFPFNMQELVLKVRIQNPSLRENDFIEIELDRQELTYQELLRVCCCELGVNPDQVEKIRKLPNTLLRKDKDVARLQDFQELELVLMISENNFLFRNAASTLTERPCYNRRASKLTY
UniProt P20073: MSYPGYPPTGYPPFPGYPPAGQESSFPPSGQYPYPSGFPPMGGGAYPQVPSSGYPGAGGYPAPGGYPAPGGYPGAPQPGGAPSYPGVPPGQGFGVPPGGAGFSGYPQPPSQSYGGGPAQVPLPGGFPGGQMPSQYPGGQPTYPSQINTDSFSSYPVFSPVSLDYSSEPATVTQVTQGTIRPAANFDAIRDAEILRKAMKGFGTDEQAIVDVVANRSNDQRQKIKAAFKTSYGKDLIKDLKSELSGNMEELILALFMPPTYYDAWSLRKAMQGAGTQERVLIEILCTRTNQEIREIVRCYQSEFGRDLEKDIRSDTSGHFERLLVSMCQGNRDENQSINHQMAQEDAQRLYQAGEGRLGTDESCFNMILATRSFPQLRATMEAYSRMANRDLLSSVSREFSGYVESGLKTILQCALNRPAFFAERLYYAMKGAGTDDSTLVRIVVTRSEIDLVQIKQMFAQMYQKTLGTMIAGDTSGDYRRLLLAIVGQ
UniProt O60306: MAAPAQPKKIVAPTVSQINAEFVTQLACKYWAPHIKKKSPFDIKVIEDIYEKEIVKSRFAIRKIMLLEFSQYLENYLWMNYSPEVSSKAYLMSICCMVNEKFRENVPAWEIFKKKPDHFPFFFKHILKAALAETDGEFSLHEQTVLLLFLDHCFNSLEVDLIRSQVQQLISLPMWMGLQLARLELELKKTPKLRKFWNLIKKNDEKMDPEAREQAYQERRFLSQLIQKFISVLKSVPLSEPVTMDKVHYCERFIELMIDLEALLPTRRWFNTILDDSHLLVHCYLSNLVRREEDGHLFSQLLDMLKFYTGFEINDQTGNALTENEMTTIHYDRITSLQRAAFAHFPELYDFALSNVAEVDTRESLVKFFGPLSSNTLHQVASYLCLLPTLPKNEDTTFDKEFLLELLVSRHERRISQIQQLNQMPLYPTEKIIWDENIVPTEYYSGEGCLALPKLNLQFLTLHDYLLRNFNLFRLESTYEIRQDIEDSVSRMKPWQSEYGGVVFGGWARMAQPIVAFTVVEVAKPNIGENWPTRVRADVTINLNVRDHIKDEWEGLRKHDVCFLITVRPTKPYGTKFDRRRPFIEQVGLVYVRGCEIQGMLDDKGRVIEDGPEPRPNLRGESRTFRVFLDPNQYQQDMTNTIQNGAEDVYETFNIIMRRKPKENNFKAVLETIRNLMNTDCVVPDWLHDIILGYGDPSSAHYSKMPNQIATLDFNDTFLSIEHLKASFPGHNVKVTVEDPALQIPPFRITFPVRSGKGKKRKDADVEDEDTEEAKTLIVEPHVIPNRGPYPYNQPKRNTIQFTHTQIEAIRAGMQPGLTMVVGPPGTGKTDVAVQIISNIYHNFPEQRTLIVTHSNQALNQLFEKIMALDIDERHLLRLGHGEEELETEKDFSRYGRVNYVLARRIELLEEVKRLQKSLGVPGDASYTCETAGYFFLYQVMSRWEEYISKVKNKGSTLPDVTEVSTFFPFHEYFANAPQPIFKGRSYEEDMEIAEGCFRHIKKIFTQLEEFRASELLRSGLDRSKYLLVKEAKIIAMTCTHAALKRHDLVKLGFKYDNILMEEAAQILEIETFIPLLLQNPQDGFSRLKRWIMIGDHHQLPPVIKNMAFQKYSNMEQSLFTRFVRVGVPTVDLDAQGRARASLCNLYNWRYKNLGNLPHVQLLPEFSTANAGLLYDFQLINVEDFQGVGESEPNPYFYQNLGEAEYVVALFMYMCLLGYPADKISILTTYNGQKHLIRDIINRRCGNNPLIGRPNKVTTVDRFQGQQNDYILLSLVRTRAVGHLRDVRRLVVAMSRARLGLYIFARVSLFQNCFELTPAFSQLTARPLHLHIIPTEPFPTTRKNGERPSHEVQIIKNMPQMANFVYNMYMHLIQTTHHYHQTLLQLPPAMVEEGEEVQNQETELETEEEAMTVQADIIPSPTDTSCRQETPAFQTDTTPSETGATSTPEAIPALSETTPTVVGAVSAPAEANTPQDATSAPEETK
UniProt O94973, whole entry, looked up: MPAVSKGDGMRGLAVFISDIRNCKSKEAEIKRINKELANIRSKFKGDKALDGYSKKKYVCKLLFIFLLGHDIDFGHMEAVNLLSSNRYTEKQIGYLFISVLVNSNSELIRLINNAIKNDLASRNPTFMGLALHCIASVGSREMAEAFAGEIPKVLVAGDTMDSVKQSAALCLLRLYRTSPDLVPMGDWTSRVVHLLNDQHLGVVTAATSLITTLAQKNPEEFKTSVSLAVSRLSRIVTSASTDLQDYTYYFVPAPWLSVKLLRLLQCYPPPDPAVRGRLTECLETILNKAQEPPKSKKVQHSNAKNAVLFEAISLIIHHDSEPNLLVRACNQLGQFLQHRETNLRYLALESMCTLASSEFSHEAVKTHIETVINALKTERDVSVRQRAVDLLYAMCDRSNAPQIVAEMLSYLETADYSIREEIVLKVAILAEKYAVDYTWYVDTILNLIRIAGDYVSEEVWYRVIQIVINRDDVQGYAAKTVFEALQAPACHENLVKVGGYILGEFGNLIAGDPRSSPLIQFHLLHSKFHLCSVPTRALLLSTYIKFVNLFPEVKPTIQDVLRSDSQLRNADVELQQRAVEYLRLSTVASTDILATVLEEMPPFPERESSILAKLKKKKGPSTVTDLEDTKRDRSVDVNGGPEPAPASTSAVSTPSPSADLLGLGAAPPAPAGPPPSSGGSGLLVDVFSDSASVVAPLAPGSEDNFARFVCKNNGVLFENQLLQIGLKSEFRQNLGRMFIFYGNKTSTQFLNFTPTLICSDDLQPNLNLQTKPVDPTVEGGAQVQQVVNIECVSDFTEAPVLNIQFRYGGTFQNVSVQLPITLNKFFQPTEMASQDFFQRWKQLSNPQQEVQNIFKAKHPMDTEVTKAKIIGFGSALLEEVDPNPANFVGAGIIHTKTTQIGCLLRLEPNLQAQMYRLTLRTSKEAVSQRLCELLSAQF
UniProt P27540: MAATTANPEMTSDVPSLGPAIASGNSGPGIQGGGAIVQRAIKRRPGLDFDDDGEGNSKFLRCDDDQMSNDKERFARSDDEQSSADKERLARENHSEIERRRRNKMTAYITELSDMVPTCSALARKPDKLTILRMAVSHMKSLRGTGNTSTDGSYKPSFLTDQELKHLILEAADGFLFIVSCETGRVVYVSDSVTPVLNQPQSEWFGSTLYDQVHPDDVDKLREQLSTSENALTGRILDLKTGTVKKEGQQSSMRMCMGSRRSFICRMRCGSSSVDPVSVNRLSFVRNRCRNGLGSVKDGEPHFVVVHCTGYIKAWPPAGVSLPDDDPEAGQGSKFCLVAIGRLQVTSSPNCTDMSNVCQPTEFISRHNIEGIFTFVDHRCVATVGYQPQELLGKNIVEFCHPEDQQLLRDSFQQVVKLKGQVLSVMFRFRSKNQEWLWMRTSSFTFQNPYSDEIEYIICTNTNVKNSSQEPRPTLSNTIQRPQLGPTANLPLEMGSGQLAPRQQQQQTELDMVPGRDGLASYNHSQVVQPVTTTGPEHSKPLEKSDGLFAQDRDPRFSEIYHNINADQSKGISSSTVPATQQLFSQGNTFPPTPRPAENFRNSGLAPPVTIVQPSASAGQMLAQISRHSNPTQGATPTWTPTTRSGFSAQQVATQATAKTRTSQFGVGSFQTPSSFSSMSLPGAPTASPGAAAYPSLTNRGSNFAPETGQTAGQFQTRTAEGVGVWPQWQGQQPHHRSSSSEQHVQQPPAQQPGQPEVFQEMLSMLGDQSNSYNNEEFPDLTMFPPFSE
UniProt Q10567: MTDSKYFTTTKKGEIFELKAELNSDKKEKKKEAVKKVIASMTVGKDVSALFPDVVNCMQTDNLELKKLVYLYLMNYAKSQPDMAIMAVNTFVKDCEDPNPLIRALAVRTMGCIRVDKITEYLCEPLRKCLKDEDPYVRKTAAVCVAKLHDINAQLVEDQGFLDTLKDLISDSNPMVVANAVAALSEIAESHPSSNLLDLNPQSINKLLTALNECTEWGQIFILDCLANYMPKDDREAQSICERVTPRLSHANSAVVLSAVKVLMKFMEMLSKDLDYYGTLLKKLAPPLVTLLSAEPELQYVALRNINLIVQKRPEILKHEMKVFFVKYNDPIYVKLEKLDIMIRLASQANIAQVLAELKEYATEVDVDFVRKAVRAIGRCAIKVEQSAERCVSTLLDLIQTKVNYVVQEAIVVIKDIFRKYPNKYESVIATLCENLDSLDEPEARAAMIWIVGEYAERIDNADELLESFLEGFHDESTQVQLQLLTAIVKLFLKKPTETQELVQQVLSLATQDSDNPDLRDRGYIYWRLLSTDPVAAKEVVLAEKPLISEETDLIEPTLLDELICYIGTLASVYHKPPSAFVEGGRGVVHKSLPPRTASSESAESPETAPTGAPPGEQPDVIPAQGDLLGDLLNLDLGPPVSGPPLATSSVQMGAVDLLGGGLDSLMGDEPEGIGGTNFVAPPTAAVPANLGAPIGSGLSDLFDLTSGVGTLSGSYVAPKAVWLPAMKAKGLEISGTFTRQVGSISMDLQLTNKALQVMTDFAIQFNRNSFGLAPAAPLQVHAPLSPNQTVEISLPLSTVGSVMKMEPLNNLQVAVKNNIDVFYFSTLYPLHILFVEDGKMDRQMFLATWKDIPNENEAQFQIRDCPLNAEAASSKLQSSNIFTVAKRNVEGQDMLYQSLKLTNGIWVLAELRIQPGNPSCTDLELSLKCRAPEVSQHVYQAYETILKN
UniProt P07741, 123-145: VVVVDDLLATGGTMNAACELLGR
UniProt Q66PJ3: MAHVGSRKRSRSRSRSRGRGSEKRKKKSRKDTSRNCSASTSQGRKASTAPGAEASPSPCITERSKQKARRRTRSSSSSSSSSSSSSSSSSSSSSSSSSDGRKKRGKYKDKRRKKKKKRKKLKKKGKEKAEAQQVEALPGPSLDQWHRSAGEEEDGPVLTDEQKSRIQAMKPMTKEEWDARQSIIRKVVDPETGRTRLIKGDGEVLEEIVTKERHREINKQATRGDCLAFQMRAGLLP
UniProt Q9H993: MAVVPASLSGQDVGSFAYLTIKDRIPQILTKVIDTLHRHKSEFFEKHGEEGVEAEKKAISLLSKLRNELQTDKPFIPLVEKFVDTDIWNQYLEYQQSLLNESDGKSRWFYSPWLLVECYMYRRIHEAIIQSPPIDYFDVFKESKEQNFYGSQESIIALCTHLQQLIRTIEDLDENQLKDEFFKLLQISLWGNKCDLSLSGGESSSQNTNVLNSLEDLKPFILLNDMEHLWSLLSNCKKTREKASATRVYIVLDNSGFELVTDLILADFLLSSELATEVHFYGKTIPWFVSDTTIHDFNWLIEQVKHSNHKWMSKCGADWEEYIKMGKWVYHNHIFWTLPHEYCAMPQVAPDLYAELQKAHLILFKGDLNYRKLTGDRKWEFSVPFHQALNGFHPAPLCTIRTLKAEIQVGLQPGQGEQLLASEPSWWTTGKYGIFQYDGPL
UniProt A7KAX9, 1353-1385: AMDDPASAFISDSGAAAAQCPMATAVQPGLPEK
UniProt A7KAX9, 1965-1985: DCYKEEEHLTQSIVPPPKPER
UniProt Q14155: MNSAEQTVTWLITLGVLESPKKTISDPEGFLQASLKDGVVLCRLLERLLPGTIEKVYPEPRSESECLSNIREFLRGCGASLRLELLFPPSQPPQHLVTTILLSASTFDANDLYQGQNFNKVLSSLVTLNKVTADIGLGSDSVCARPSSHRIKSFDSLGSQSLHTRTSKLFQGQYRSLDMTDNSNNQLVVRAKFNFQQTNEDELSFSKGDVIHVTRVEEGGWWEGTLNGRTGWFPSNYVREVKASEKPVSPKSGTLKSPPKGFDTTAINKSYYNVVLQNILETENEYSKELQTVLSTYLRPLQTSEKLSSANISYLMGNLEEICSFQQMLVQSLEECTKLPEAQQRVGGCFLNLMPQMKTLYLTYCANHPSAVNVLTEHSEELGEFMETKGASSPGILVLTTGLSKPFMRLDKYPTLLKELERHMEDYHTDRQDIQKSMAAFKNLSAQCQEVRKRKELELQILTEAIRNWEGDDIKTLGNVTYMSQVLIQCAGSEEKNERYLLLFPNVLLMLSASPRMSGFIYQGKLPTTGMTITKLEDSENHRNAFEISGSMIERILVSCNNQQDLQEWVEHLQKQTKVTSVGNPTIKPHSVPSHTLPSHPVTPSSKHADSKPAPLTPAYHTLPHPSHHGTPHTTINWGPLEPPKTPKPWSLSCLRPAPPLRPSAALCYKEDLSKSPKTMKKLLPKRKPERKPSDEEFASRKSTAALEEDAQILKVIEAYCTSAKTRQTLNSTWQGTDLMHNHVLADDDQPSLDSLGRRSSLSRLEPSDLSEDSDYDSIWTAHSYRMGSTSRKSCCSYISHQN

Some of the results follow. The data scatter; read single values as rough.
Each target was assayed with ClCC(=O)N[C@@H]1CCCc2ccccc12 (assay: log2 mean competition ratio of IA-DTB cysteine labelling (DMSO/compound) (log2 ratio); higher = stronger cysteine engagement by compound). Settings: 50 µM; treatment time: 4 h; cell line lysate: HEK293T.
Method: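 IA-DTB competitive cysteine chemoproteomics in HEK293T RIPA lysate. Lysates were treated with compound 29 or 30 at 50 or 200 µM for 4 h, then IA-DTB (500 µM, 1 h), trypsin-digested, NeutrAvidin-enriched and analysed by diaPASEF. Competition ratio = intensity DMSO / intensity compound (n=4 treated, n=64 DMSO); binding: mean log2 CR ≥ 1 and p ≤ 0.05 plus QC filters. Target is the cysteine site.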
For ANKRD40 C358 (UniProt Q6AI12), the “log2 mean competition ratio” value was -0.0745.
ARIH1 C327 (UniProt Q9Y4X5) was tested, and the “log2 mean competition ratio” value was -0.0185.
For APBA2 C483 (UniProt Q99767), the “log2 mean competition ratio” value was -0.393.
For ARHGAP19 C340 (UniProt Q14CB8), the “log2 mean competition ratio” value was -0.148.
For ANKRD11 C818 (UniProt Q6UB99), the “log2 mean competition ratio” value was -0.0951.
In the case of ANXA7 C298 (UniProt P20073), the “log2 mean competition ratio” value is reported as 0.131.
ANKRD52 C169 (UniProt Q8NB46) was tested, and the “log2 mean competition ratio” value was 0.0844.
With ARID4B C178 (UniProt Q4LE39) the “log2 mean competition ratio” value was -0.158.
For ARCN1 C479 (UniProt P48444), the “log2 mean competition ratio” value was -0.325.
AQR C1245 (UniProt O60306) was tested, and the “log2 mean competition ratio” value was 0.152.
For ARFGEF2 C90 (UniProt Q9Y6D5), the “log2 mean competition ratio” value was 0.139.
With AP2A2 C532 (UniProt O94973) the “log2 mean competition ratio” value was 0.227.
With ARNT C62 (UniProt P27540) the “log2 mean competition ratio” value was -0.235.
AP2A2 C282 (UniProt O94973) was tested, and the “log2 mean competition ratio” value was -0.0353.
For AP3B1 C893 (UniProt O00203), the “log2 mean competition ratio” value was -0.353.
ASCC3 C225 (UniProt Q8N3C0) was tested, and the “log2 mean competition ratio” value was -0.13.
For AP1B1 C921 (UniProt Q10567), the “log2 mean competition ratio” value was -0.114.
In the case of APRT C140 (UniProt P07741), the “log2 mean competition ratio” value is reported as 0.0191.
With ARL6IP4 C36 (UniProt Q66PJ3) the “log2 mean competition ratio” value was 0.129.
For AP3D1 C348 (UniProt O14617), the “log2 mean competition ratio” value was -0.304.
For ARHGEF40 C1282 (UniProt Q8TER5), the “log2 mean competition ratio” value was 0.305.
With ARMT1 C315 (UniProt Q9H993) the “log2 mean competition ratio” value was -0.0822.
For AP2B1 C241 (UniProt P63010), the “log2 mean competition ratio” value was -0.106.
In the case of ASCC3 C2101 (UniProt Q8N3C0), the “log2 mean competition ratio” value is reported as 0.035.
In the case of ARHGAP32 C1372 (UniProt A7KAX9), the “log2 mean competition ratio” value is reported as -0.359.
APBB1 C672 was tested, and the “log2 mean competition ratio” value was -0.153.
With ARHGAP32 C1966 (UniProt A7KAX9) the “log2 mean competition ratio” value was 0.176.
For APAF1 C203 (UniProt O14727), the “log2 mean competition ratio” value was -0.139.
APLP2 C343 (UniProt Q06481) was tested, and the “log2 mean competition ratio” value was -0.183.
In the case of ARL5B C132 (UniProt Q96KC2), the “log2 mean competition ratio” value is reported as -0.0434.
For ARHGEF6 C418 (UniProt Q15052), the “log2 mean competition ratio” value was -0.0718.
For ANLN C512 (UniProt Q9NQW6), the “log2 mean competition ratio” value was -0.089.
For ARL16 C164, the “log2 mean competition ratio” value was -0.287.
In the case of ANKRD54 C265 (UniProt Q6NXT1), the “log2 mean competition ratio” value is reported as -0.189.
In the case of ARFGEF1 C1503 (UniProt Q9Y6D6), the “log2 mean competition ratio” value is reported as 0.441.
With ARHGEF7 C448 (UniProt Q14155) the “log2 mean competition ratio” value was -0.301.
APAF1 C633 (UniProt O14727) was tested, and the “log2 mean competition ratio” value was 0.0157.
